These results are taken from PubChem BioAssay AID328 (DTP/NCI, 2004).

The test system of this assay is BDF1 mice, P388 leukemia ip, median survival T/C. Kind of assay: NCI In Vivo Anticancer Drug Screen. Data for tumor model P388 Leukemia (intraperitoneal) in B6D2F1 (BDF1) mice. Particulars: higher T/C = longer survival. The method, boiled down:
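Read-out is survival of treated animals expressed relative to the vehicle group, as a T/C ratio.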

Setting [1] is: T/C endpoint: median survival time, dose: 100.0 mg/kg/injection, schedule: Q01DX009 (ip), vehicle: saline with Tween-80.
The mark [2] stands for this setting: T/C endpoint: median survival time, dose: 200.0 mg/kg/injection, schedule: Q01DX009 (ip), vehicle: saline with Tween-80.
The mark [3] stands for this setting: T/C endpoint: median survival time, dose: 50.0 mg/kg/injection, schedule: Q01DX009 (ip), vehicle: Klucel (hydroxypropylcellulose) (HPC).
The mark [4] stands for this setting: T/C endpoint: median survival time, dose: 200.0 mg/kg/injection, schedule: Q01DX009 (ip), vehicle: Klucel (hydroxypropylcellulose) (HPC).
The mark [5] stands for this setting: T/C endpoint: median survival time, dose: 400.0 mg/kg/injection, schedule: Q01DX009 (ip), vehicle: Klucel (hydroxypropylcellulose) (HPC).
Where [6] appears, read: T/C endpoint: median survival time, dose: 100.0 mg/kg/injection, schedule: Q01DX009 (ip), vehicle: Klucel (hydroxypropylcellulose) (HPC).
Where [7] appears, read: T/C endpoint: median survival time, dose: 400.0 mg/kg/injection, schedule: Q01DX009 (ip), vehicle: saline with Tween-80.
[8] abbreviates: T/C endpoint: median survival time, dose: 50.0 mg/kg/injection, schedule: Q01DX009 (ip), vehicle: saline.
Where [9] appears, read: T/C endpoint: median survival time, dose: 100.0 mg/kg/injection, schedule: Q01DX009 (ip), vehicle: saline.
[10] abbreviates: T/C endpoint: median survival time, dose: 200.0 mg/kg/injection, schedule: Q01DX009 (ip), vehicle: saline.
The mark [11] stands for this setting: T/C endpoint: median survival time, dose: 400.0 mg/kg/injection, schedule: Q04DX003 (ip), vehicle: saline.
The mark [12] stands for this setting: T/C endpoint: median survival time, dose: 200.0 mg/kg/injection, schedule: Q04DX003 (ip), vehicle: saline with Tween-80.
[13] abbreviates: T/C endpoint: median survival time, dose: 400.0 mg/kg/injection, schedule: Q04DX003 (ip), vehicle: water.
[14] abbreviates: T/C endpoint: median survival time, dose: 400.0 mg/kg/injection, schedule: Q04DX003 (ip), vehicle: Klucel (hydroxypropylcellulose) (HPC).

Structures are written as SMILES. The list does not hold the whole screen: it is rich in T/C values a quarter to a half above the control, in often repeated tests (any T/C) and in doses without a T/C. Other doses and runs of a compound stand elsewhere. T/C: endpoint of the treated group in % of that of the vehicle group. Some doses have a count of surviving animals in place of a T/C: the source holds a T/C of zero for them, seemingly a mark for toxic or unscored doses. Some survivor counts are full or nearly so, which does not show that the dose was tolerated: survival well below the control is almost never listed, so the zero probably covers shortened survival too. Survivors were counted at the toxicity check, usually on the fifth day, unless a day is given; later deaths do not show. Schedule codes are those of the source, taken here to give the interval after Q, in days (D) or hours (H), and the number of doses after X. For survival time, this PubChem deposit counts one and a half times the control or more as active, and values a quarter to a half above the control carry no call in these data; other NCI protocols may use other cut-offs. Some schedules carry Z or #; the key to these is not given. Some T/C values carry the count of animals alive at the toxicity check (mostly the fifth day); without a count, all were alive then.

As to `CCCCCCCCCCCCN1CCCC(C)C1` (centres undefined), the survivor count by setting is: under setting [1], 5 of 6; under setting [2], 2 of 6.
As for `N#Cc1ccc(-c2ccc(C#N)cc2Br)c(Br)c1`, under setting [3], the T/C was 125 % of control. The survivor count is 6 of 6 under setting [4] and 5 of 6 under setting [5].
For the compound `COc1cc(O)c(Cc2ccccc2O)c(O)c1C(=O)CCc1ccccc1`, the T/C (T/C endpoint: median survival time, dose: 1.0 mg/kg/injection, schedule: Q01DX009 (ip), vehicle: alcohol) was 130 % of control.
With `COc1c(C#N)c2c(c(OC)c1OC)-c1ccc(OC)c(=O)cc1[C@@H](NC(C)=O)CC2`, the T/C is, setting by setting: (T/C endpoint: median survival time, dose: 12.5 mg/kg/injection, schedule: Q01DX009 (ip), vehicle: Klucel (hydroxypropylcellulose) (HPC)) 137 % of control; (T/C endpoint: median survival time, dose: 25.0 mg/kg/injection, schedule: Q01DX009 (ip), vehicle: Klucel (hydroxypropylcellulose) (HPC)) 144 % of control. Besides, the survivor count runs as follows: under setting [3], 6 of 6; under setting [6], 0 of 6.
Regarding `O=C1C(Br)=Cc2cccc3cccc1c23`, the survivor count is, setting by setting: under setting [1], 6 of 6; under setting [7], 6 of 6.
With `CCN(C)c1ccc(/C=C/c2ccnc3ccccc23)cc1`, the survivor count was 6 of 6 (T/C endpoint: median survival time, dose: 50.0 mg/kg/injection, schedule: Q01DX009 (ip), vehicle: saline with Tween-80); 6 of 6 under setting [1]; 6 of 6 under setting [2].
Take `CC(N)Cc1c(Cl)cc(N(C)C)cc1Cl` (centres undefined): the survivor count runs as follows: under setting [8], 0 of 6; under setting [9], 0 of 6; under setting [10], 0 of 6.
For `COc1ccc2c(Cc3ccccc3)cncc2c1O`, under setting [9], the T/C was 125 % of control [5 of 6 alive]. For the same compound, the survivor count is 3 of 6 under setting [10] and 0 of 6 (T/C endpoint: median survival time, dose: 400.0 mg/kg/injection, schedule: Q01DX009 (ip), vehicle: saline).
For the compound `CC(=O)c1cccc(OCC(O)CN(C(C)C)C(C)C)c1` (centres undefined), under setting [11], the survivor count is 0 of 6.
`C(#CCN1CCCC1)CCCN1CCCC1`: the survivor count under setting [12] is reported as 0 of 6.
On to `CCOC(=O)C1(C)C=C(Nc2ccc(OC)cc2)C(=O)N1c1ccc(OC)cc1` (centres undefined), for which the survivor count is listed as 2 of 6 under setting [1] and 0 of 6 under setting [2].
On to `CC[C@@H](c1ccc(O)cc1)[C@@H](CC)c1ccc(O)cc1`, for which the survivor count under setting [10] is recorded as 4 of 6 and the survivor count (T/C endpoint: median survival time, dose: 400.0 mg/kg/injection, schedule: Q04DX003 (ip), vehicle: alcohol) is given as 1 of 6.
As to `C/C(=C\C(=O)O)CC(=O)O`, under setting [13], the survivor count is listed as 0 of 6.
`O=c1[nH]cc(CCc2ccccc2)c(=O)[nH]1`: the survivor count (T/C endpoint: median survival time, dose: 200.0 mg/kg/injection, schedule: Q01DX001 (ip), vehicle: Klucel (hydroxypropylcellulose) (HPC)) is reported as 6 of 6 and the survivor count under setting [14] is on record as 6 of 6.
`CCCC[N+](CCCC)(CCCC)CCCC.Cc1ccc([SH2+])c([SH2+])c1.Cc1ccc([SH2+])c([SH2+])c1.[Ni+3]`: the T/C was 145 % of control under setting [14]; 130 % of control under setting [11]; 129 % of control [5 of 6 alive] (T/C endpoint: median survival time, dose: 600.0 mg/kg/injection, schedule: Q04DX003 (ip), vehicle: Klucel (hydroxypropylcellulose) (HPC)).
As to `COc1cc2ccnc(Cc3ccccc3)c2cc1OC`, the survivor count under setting [7] is on record as 0 of 6.
`CCN(CC)c1ccc(C2NC(=O)c3ccccc3N2)cc1` (centres undefined): the survivor count is 6 of 6 under setting [6], 5 of 6 under setting [4] and 0 of 6 under setting [5].
`OCC1OC(n2cnc3c(SSc4ncnc5c4ncn5C4OC(CO)C(O)C4O)ncnc32)C(O)C1O` (centres undefined): the survivor count (T/C endpoint: median survival time, dose: 267.0 mg/kg/injection, schedule: Q01DX010 (ip), vehicle: saline) is recorded as 6 of 6 and the survivor count (T/C endpoint: median survival time, dose: 400.0 mg/kg/injection, schedule: Q01DX010 (ip), vehicle: saline) is listed as 6 of 6.
As for `CC(=O)[C@H]1CC[C@H]2[C@@H]3CC[C@@H]4C[C@@H](O)CC[C@]4(C)[C@H]3CC[C@]12C`, the survivor count (T/C endpoint: median survival time, dose: 650.0 mg/kg/injection, schedule: Q01DX009 (ip), vehicle: saline with Tween-80) was 2 of 3.
Turning to `CC/C(=C\c1ccccc1)[N+](=O)[O-]`, the survivor count is on record as 4 of 6 under setting [8]; 0 of 6 under setting [9]; 0 of 6 (T/C endpoint: median survival time, dose: 150.0 mg/kg/injection, schedule: Q01DX009 (ip), vehicle: saline); 6 of 6 (T/C endpoint: median survival time, dose: 200.0 mg/kg/injection, schedule: Q04DX003 (ip), vehicle: saline); 0 of 6 under setting [11]. Moreover, the T/C under setting [9] is 125 % of control.
As for `O=[N+]([O-])c1ccc2[nH]c3c(c2c1)CSCC3`, under setting [2], the survivor count is listed as 5 of 6.
As to `Cn1cnccc1=O`, under “T/C endpoint: median survival time, dose: 25.0 mg/kg/injection, schedule: Q01DX009 (ip), vehicle: water”, the T/C was 125 % of control.
As to `Cc1c[nH]c(=O)[nH]c1=O`, the T/C (T/C endpoint: median survival time, dose: 260.0 mg/kg/injection, schedule: Q04DX003 (ip), vehicle: saline with Tween-80) is 130 % of control and the T/C (T/C endpoint: median survival time, dose: 260.0 mg/kg/injection, schedule: Q## X003 (ip), vehicle: saline with Tween-80) is 130 % of control.
On to `CC(CCC(=O)NC12CC3CC(CC(C3)C1)C2)C1CCC2C3CCC4CC(OC=O)CCC4(C)C3CC(OC=O)C12C` (centres undefined), for which the survivor count is, setting by setting: (T/C endpoint: median survival time, dose: 50.0 mg/kg/injection, schedule: Q04DX002 (ip), vehicle: saline with Tween-80) 6 of 6; (T/C endpoint: median survival time, dose: 100.0 mg/kg/injection, schedule: Q04DX002 (ip), vehicle: saline with Tween-80) 6 of 6; (T/C endpoint: median survival time, dose: 200.0 mg/kg/injection, schedule: Q04DX002 (ip), vehicle: saline with Tween-80) 6 of 6; (T/C endpoint: median survival time, dose: 400.0 mg/kg/injection, schedule: Q04DX002 (ip), vehicle: saline with Tween-80) 6 of 6.
As to `CNC(=O)OCc1c(-c2ccccc2)nc2sccn12`, the T/C (T/C endpoint: median survival time, dose: 50.0 mg/kg/injection, schedule: Q01DX001 (ip), vehicle: Klucel (hydroxypropylcellulose) (HPC)) is 126 % of control.
As for `CCCCCCCCCCCC1=NCCN1`, the survivor count was 6 of 6 (T/C endpoint: median survival time, dose: 6.25 mg/kg/injection, schedule: Q04DX003 (ip), vehicle: saline with Tween-80) and 6 of 6 (T/C endpoint: median survival time, dose: 25.0 mg/kg/injection, schedule: Q04DX003 (ip), vehicle: saline with Tween-80).
Regarding `COc1ccc(CCO)cc1OC`, the survivor count under setting [13] is given as 6 of 6.
Take `CCC(CO)NC(=O)/C=C/c1cc(OC)ccc1OC` (centres undefined): the survivor count (T/C endpoint: median survival time, dose: 800.0 mg/kg/injection, schedule: Q01DX009 (ip), vehicle: saline with Tween-80) was 6 of 6.
For the compound `CC1(C)CC(=O)N/C1=C\C1NC(=O)CC1(C)C` (centres undefined), under setting [7], the survivor count was 5 of 6.
As to `CC(C)(O)CCC(=O)C(C)(O)C1C(O)CC2(C)C3CC=C4C(CC(O)C(=O)C4(C)C)C3(C)C(=O)CC12C` (centres undefined), the T/C (T/C endpoint: mean survival time, dose: 4.0 mg/kg/injection, schedule: Q01DX010 (ip), vehicle: carboxymethylcellulose (CMC)) was 135 % of control [5 of 6 alive]. Besides, the survivor count by setting is: (T/C endpoint: mean survival time, dose: 8.0 mg/kg/injection, schedule: Q01DX010 (ip), vehicle: carboxymethylcellulose (CMC)) 1 of 6; (T/C endpoint: median survival time, dose: 8.0 mg/kg/injection, schedule: Q01DX010 (ip), vehicle: carboxymethylcellulose (CMC)) 3 of 6.
`O=[N+]([O-])/C=C/c1ccc2ccccc2c1`: the T/C was 127 % of control (T/C endpoint: median survival time, dose: 9.38 mg/kg/injection, schedule: Q01DX009 (ip), vehicle: saline with Tween-80); 127 % of control (T/C endpoint: median survival time, dose: 18.75 mg/kg/injection, schedule: Q01DX009 (ip), vehicle: saline with Tween-80); 131 % of control [5 of 6 alive] (T/C endpoint: median survival time, dose: 37.5 mg/kg/injection, schedule: Q01DX009 (ip), vehicle: saline with Tween-80); 130 % of control (T/C endpoint: median survival time, dose: 200.0 mg/kg/injection, schedule: Q01DX009 (ip), vehicle: saline sonified); 125 % of control under setting [12]; 135 % of control (T/C endpoint: median survival time, dose: 400.0 mg/kg/injection, schedule: Q01DX009 (ip), vehicle: saline sonified).
